The supplement of paper PMC4604168 (melanoma cell lines)
The list shows a part of the results. Many values rest on one well or one pass, so single values are uncertain.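 Cells were imaged in 1,536-well plates, and nuclei stained with an antibody against cleaved PARP were counted against all DNA-stained nuclei to give the apoptosis fraction. Screening doses were chosen to leave most cells alive, and resting and induced cleaved-PARP levels differ strongly between cell lines.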

What was measured:
Test in all cases: cleaved PARP positive nuclei fraction relative to DMSO control; melanoma cells; higher = more apoptosis
Conditions in all cases: library dose: low library concentration; 72 h
MZ2-MEL = tested on: MZ2-MEL
MeWo = tested on: MeWo
RPMI7951 = tested on: RPMI7951
RVH-421 = tested on: RVH-421
SkMel28 = tested on: SkMel28
SkMel2 = tested on: SkMel2
SkMel30 = tested on: SkMel30
SkMel5 = tested on: SkMel5
UACC257 = tested on: UACC257
UACC62 = tested on: UACC62
WM115 = tested on: WM115
WM1716 = tested on: WM1716
WM1745 = tested on: WM1745
WM3526 = tested on: WM3526
WM3619 = tested on: WM3619
WM451Lu = tested on: WM451Lu

SMILES | cleaved PARP positive nuclei fraction (MZ2-MEL) [%] | cleaved PARP positive nuclei fraction (MeWo) [%] | cleaved PARP positive nuclei fraction (RPMI7951) [%] | cleaved PARP positive nuclei fraction (RVH-421) [%] | cleaved PARP positive nuclei fraction (SkMel28) [%] | cleaved PARP positive nuclei fraction (SkMel2) [%] | cleaved PARP positive nuclei fraction (SkMel30) [%] | cleaved PARP positive nuclei fraction (SkMel5) [%] | cleaved PARP positive nuclei fraction (UACC257) [%] | cleaved PARP positive nuclei fraction (UACC62) [%] | cleaved PARP positive nuclei fraction (WM115) [%] | cleaved PARP positive nuclei fraction (WM1716) [%] | cleaved PARP positive nuclei fraction (WM1745) [%] | cleaved PARP positive nuclei fraction (WM3526) [%] | cleaved PARP positive nuclei fraction (WM3619) [%] | cleaved PARP positive nuclei fraction (WM451Lu) [%]
O=C(/C=C/c1cccnc1)NCCCCC1CCN(C(=O)c2ccccc2)CC1 + OCCn1cc(-c2cnc3nnn(Cc4ccc5ncccc5c4)c3n2)cn1 [PF04217903] (first compound 0.01 µM, partner dose 1 µM) | 1160 | 57.5 | 46.4 | 41.8 | 112 | 714 | 67.2 | 98.7 | 71.4 | 47.8 | 211 | 143 | 75.5 | 60.1 | 80.9 | 75.9
CC[C@]1(O)C[C@H]2CN(CCc3c([nH]c4ccccc34)[C@@](C(=O)OC)(c3cc4c(cc3OC)N(C=O)[C@H]3[C@@](O)(C(=O)OC)[C@H](OC(C)=O)[C@]5(CC)C=CCN6CC[C@]43[C@@H]65)C2)C1 [vincristine] + CC(C)CCN1c2nc(Nc3cc(F)c(O)c(F)c3)ncc2N(C)C(=O)C1C [BID1870] (first compound 0.0001 µM, partner dose 0.2 µM) | 155 | 632 | 143 | 44.3 | 93.9 | 94.8 | 77.4 | 137 | 10.8 | 1320 | 665 | 168 | 130 | 185 | 165 | 288
Cc1cc(Nc2cc(N3CCN(C)CC3)nc(Sc3ccc(NC(=O)C4CC4)cc3)n2)n[nH]1 [Tozasertib] + CCCCCCCCCCCC1=C(O)C(=O)C=C(O)C1=O [Embelin] (first compound 0.006 µM, partner dose 1.2 µM) | 73.8 | 94 | 46.2 | 85 | 84.8 | 36.1 | 67.7 | 77.1 | 68.2 | 88.1 | 104 | 104 | 87.5 | 64.2 | 85 | 34.1
Cc1ccc(Nc2nccc(N(C)c3ccc4c(C)n(C)nc4c3)n2)cc1S(N)(=O)=O [Pazopanib] + N#Cc1c(O)c2c(-c3ccc(-c4ccccc4O)cc3)csc2[nH]c1=O [A769662] (first compound 0.4 µM, partner dose 2 µM) | 83.6 | 74.7 | 146 | 63.1 | 136 | 65.1 | 43.5 | 292 | 249 | 112 | 163 | 115 | 81.7 | 163 | 87.3 | 93.4
CCCCCCCCCCCCCCCCCCOP(=O)([O-])OC1CC[N+](C)(C)CC1 [Perifosine] + CCN(CC)CCCCNc1ncc2cc(-c3cc(OC)cc(OC)c3)c(NC(=O)NC(C)(C)C)nc2n1 [PD173074] (first compound 0.4 µM, partner dose 0.1 µM) | 180 | 41.5 | 88.4 | 102 | 165 | 98.5 | 81.5 | 200 | 94.2 | 142 | 196 | 169 | 89.5 | 76.7 | 114 | 35.2
Cc1cn(-c2cc(NC(=O)c3ccc(C)c(Nc4nccc(-c5cccnc5)n4)c3)cc(C(F)(F)F)c2)cn1 [nilotinib] + Oc1nc(-c2ccc(C(F)(F)F)cc2)nc2c1CSCC2 [XAV939] (first compound 0.2 µM, partner dose 2 µM) | 73.1 | 102 | 154 | 91.2 | 63.7 | 134 | 65.7 | 92.3 | 106 | 156 | 108 | 154 | 115 | 64.2 | 108 | 63.1
Cc1cc(Nc2cc(N3CCN(C)CC3)nc(Sc3ccc(NC(=O)C4CC4)cc3)n2)n[nH]1 [Tozasertib] + O=S(=O)(c1ccccc1)N(CC(F)(F)F)c1ccc(C(O)(C(F)(F)F)C(F)(F)F)cc1 [T0901317] (first compound 0.006 µM, partner dose 1.4 µM) | 159 | 182 | 117 | 114 | 116 | 100 | 119 | 85.4 | 120 | 86.5 | 80 | 125 | 108 | 476 | 145 | 526
Cc1cn(-c2cc(NC(=O)c3ccc(C)c(Nc4nccc(-c5cccnc5)n4)c3)cc(C(F)(F)F)c2)cn1 [nilotinib] + O=C(CCCCCCC(=O)Nc1ccccc1)NO [vorinostat] (first compound 0.2 µM, partner dose 0.08 µM) | 28.1 | 102 | 106 | 91.1 | 224 | 103 | 58.7 | 146 | 65.2 | 231 | 104 | 179 | 109 | 58.7 | 94.1 | 61.8
COc1cc([C@@H]2c3cc4c(cc3[C@@H](O[C@@H]3O[C@@H]5CO[C@@H](C)O[C@H]5[C@H](O)[C@H]3O)[C@H]3COC(=O)[C@H]23)OCO4)cc(OC)c1O [etoposide] + CCCCCCCCCCCC1=C(O)C(=O)C=C(O)C1=O [Embelin] (first compound 0.02 µM, partner dose 1.2 µM) | 68.9 | 51.9 | 77.2 | 126 | 144 | 108 | 63.7 | 64.6 | 151 | 44.6 | 128 | 319 | 98.4 | 67.4 | 101 | 128
CC[C@]1(O)C[C@H]2CN(CCc3c([nH]c4ccccc34)[C@@](C(=O)OC)(c3cc4c(cc3OC)N(C=O)[C@H]3[C@@](O)(C(=O)OC)[C@H](OC(C)=O)[C@]5(CC)C=CCN6CC[C@]43[C@@H]65)C2)C1 [vincristine] + CC1(C)NC(=O)N(c2ccc([N+](=O)[O-])c(C(F)(F)F)c2)C1=O [nilutamide] (first compound 0.0001 µM, partner dose 1 µM) | 83.3 | 85.6 | 107 | 94.9 | 124 | 92.2 | 80.7 | 279 | 241 | 144 | 1040 | 297 | 87.5 | 671 | 139 | 192
Cc1cn(-c2cc(NC(=O)c3ccc(C)c(Nc4nccc(-c5cccnc5)n4)c3)cc(C(F)(F)F)c2)cn1 [nilotinib] + C=CCn1c(=O)c2cnc(Nc3ccc(N4CCN(C)CC4)cc3)nc2n1-c1cccc(C(C)(C)O)n1 [MK1775] (first compound 0.2 µM, partner dose 0.02 µM) | 81.8 | 97 | 64.3 | 88.3 | 84.2 | 70.8 | 112 | 71.1 | 159 | 41 | 214 | 35.8 | 110 | 60.7 | 94.7 | 146
CCCCCCCCCCCCCCCCCCOP(=O)([O-])OC1CC[N+](C)(C)CC1 [Perifosine] + O=c1cc(-c2cccc3c2Sc2ccccc2S3)oc(N2CCOCC2)c1 [KU55933] (first compound 0.4 µM, partner dose 1 µM) | 167 | 43 | 266 | 140 | 149 | 46.5 | 133 | 76.6 | 81.6 | 158 | 132 | 93.1 | 118 | 104 | 102 | 148
O=c1[nH]nc(Sc2ncc([N+](=O)[O-])s2)n1-c1ccc2c(c1)OCCO2 + O=C1NC(=O)/C(=C/c2ccc(-c3ccc(F)cc3O)o2)S1 [AS252424] (first compound 0.2 µM, partner dose 1 µM) | 99.1 | 95.6 | 35 | 127 | 68.7 | 34 | 25.4 | 63.2 | 449 | 79.6 | 91.8 | 53.2 | 91.3 | 71.8 | 79.3 | 20.7
Cc1cc(Nc2cc(N3CCN(C)CC3)nc(Sc3ccc(NC(=O)C4CC4)cc3)n2)n[nH]1 [Tozasertib] + Oc1cc(-c2nc(-c3ccccc3)[nH]c2-c2ccncc2)ccc1Cl [L779450] (first compound 0.006 µM, partner dose 0.2 µM) | 87.6 | 48.6 | 68.9 | 72.2 | 94 | 83.8 | 175 | 78.8 | 80.3 | 68.5 | 112 | 131 | 90.1 | 179 | 94.9 | 244
CCCCCCCCCCCCCCCCCCOP(=O)([O-])OC1CC[N+](C)(C)CC1 [Perifosine] + Oc1nc(-c2ccc(C(F)(F)F)cc2)nc2c1CSCC2 [XAV939] (first compound 0.4 µM, partner dose 2 µM) | 80 | 28.9 | 86.9 | 62.1 | 220 | 73.4 | 34.7 | 90.3 | 170 | 113 | 112 | 109 | 104 | 170 | 84.3 | 43.4

Two entries from above, as tab-separated lines.
SMILES	cleaved PARP positive nuclei fraction (MZ2-MEL) [%]	cleaved PARP positive nuclei fraction (MeWo) [%]	cleaved PARP positive nuclei fraction (RPMI7951) [%]	cleaved PARP positive nuclei fraction (RVH-421) [%]	cleaved PARP positive nuclei fraction (SkMel28) [%]	cleaved PARP positive nuclei fraction (SkMel2) [%]	cleaved PARP positive nuclei fraction (SkMel30) [%]	cleaved PARP positive nuclei fraction (SkMel5) [%]	cleaved PARP positive nuclei fraction (UACC257) [%]	cleaved PARP positive nuclei fraction (UACC62) [%]	cleaved PARP positive nuclei fraction (WM115) [%]	cleaved PARP positive nuclei fraction (WM1716) [%]	cleaved PARP positive nuclei fraction (WM1745) [%]	cleaved PARP positive nuclei fraction (WM3526) [%]	cleaved PARP positive nuclei fraction (WM3619) [%]	cleaved PARP positive nuclei fraction (WM451Lu) [%]
O=c1[nH]nc(Sc2ncc([N+](=O)[O-])s2)n1-c1ccc2c(c1)OCCO2 + O=C1NC(=O)/C(=C/c2ccc(-c3ccc(F)cc3O)o2)S1 [AS252424] (first compound 0.2 µM, partner dose 1 µM)	99.1	95.6	35	127	68.7	34	25.4	63.2	449	79.6	91.8	53.2	91.3	71.8	79.3	20.7
Cc1cc(Nc2cc(N3CCN(C)CC3)nc(Sc3ccc(NC(=O)C4CC4)cc3)n2)n[nH]1 [Tozasertib] + Oc1cc(-c2nc(-c3ccccc3)[nH]c2-c2ccncc2)ccc1Cl [L779450] (first compound 0.006 µM, partner dose 0.2 µM)	87.6	48.6	68.9	72.2	94	83.8	175	78.8	80.3	68.5	112	131	90.1	179	94.9	244
